Results reported in patent US20050014679 (published 2005).

Assay: general procedure: peptide synthesis; NHS esters prepared with DCC/NHS
Settings: late stage modification step
[1] = analytical reversed-phase HPLC, LC-MS

Substance	step yield (overall)	also measured
A0^ArgB0^ArgB28^Lys-Nε-ArgB29^Pro Insulin	approximately 34%	crude HPLC purity [1]: approximately 70%
A0^ArgB29^Lys-Nε-Arg-Insulin	approximately 30%	–
A0^ArgB-1^ArgB0^Arg-Insulin	–	step yield: 12%
A0^gHRB0^gHRB29^Lys-Nε-gHR-Insulin	approximately 29%	crude LC-MS purity [1]: approximately 60%
A21^GlyB29^Lys-Nε-ArgC64^ArgC65^Lys-Nε-Arg-human proinsulin derivative	–	crude HPLC purity [1]: approximately 65%
A-1^ArgA0^Arg-Insulin	approximately 10%	–
B-1^ArgB0^Arg-Insulin	approximately 8%	–
